Reference: patent US11541120B2, “Phosphonium-based ionic drug conjugates” (Anthos Partners, LP, priority 2017, dated 2023)
At least one structure is not confirmed: it was looked up by name or label, or the drawing left a doubt.

System: Caco-2
Assay: Caco-2 cell permeability
Conditions: With Inhibitor

## CCC1C(O)C2C3CCC(C(C)CCC(=O)[O-])C3(C)CCC2C2(C)CCC(O)CC12.COC1=C(OC)C(=O)C(CCCCCCCCCC[P+](c2ccccc2)(c2ccccc2)c2ccccc2)=C(C)C1=O [Obeticholic acid-MitoQ]
  Mean (B-A/A-B) Efflux Ratio: 0.0498
  Mean Papp A-B: 29.6 10^−6 cm/s
  Mean Papp B-A: 1.47 10^−6 cm/s
